Our source for the binding values is publication PMC7033454.

Results are given in words; binding and its absence hold for the method and conditions named. Binding seen in cells or lysates may run through a third protein. For some of these results: Binding can be weak; no strength is given. Tags and fused reporters may be left off the sequences shown.

Assay in all cases: co-IP; HEK293T cells co-transfected with an HA-tagged and a Flag-tagged protein; lysis buffer 50 mM Tris-HCl pH 7.5, 300 mM NaCl, 1% Triton-X, 5 mM EDTA, 10% glycerol; IP with anti-Flag antibody and Protein-G Sepharose, immunoblot with anti-HA and anti-Flag
The target in assay [1] is T1, Flag-tagged CARD domain of RIG-I (UniProt O95786).
T1 sequence: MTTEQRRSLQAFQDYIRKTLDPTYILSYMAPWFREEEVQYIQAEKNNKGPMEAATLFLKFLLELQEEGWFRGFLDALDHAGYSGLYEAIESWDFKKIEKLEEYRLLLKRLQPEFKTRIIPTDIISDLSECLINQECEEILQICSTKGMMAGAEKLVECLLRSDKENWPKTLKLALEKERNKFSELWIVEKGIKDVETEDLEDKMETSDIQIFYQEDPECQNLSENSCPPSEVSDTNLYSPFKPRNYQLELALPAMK

The target of assay [2] is T2, Flag-tagged DExD/H-box domain of RIG-I (UniProt O95786).
T2 sequence: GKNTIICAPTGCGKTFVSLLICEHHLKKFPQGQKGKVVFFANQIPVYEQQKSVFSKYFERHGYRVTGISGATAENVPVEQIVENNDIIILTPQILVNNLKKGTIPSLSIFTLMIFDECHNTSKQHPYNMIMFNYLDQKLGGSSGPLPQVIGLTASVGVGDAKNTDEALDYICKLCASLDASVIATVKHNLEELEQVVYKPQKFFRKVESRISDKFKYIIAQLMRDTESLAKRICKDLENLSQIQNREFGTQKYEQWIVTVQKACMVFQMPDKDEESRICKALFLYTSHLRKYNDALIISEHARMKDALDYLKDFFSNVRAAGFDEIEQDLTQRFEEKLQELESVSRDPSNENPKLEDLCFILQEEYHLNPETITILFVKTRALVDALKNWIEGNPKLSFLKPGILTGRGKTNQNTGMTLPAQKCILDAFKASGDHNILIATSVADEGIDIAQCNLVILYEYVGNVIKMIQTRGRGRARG

Another assay has as its target T3, Flag-tagged IKKε (UniProt Q14164).
T3 sequence: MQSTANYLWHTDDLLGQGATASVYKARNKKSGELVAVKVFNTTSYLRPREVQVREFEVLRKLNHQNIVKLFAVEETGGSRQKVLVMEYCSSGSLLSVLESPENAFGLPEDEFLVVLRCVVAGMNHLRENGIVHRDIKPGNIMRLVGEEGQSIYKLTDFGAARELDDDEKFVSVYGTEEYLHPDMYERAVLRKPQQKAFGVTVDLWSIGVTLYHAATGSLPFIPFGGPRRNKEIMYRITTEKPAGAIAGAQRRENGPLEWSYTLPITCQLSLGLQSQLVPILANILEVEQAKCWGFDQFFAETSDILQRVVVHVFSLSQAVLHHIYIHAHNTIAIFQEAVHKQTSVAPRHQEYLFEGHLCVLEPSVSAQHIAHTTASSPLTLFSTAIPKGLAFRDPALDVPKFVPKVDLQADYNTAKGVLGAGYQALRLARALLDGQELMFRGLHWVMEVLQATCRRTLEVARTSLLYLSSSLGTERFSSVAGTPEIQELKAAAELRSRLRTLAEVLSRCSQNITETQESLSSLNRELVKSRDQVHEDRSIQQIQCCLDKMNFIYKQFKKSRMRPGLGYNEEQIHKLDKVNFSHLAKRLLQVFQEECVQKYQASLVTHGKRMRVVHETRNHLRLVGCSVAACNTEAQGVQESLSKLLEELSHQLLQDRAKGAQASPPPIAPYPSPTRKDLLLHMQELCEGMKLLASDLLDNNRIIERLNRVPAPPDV

The target in assay [3] is T4, Flag-tagged repressor domain (RD) of RIG-I (UniProt O95786).
T4 sequence: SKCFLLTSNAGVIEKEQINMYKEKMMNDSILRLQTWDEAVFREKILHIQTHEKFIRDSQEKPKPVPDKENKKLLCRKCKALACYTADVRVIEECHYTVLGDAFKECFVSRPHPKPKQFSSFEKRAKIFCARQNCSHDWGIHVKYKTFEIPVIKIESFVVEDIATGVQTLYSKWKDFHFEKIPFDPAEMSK

For the substance “HA-tagged Zika virus nonstructural protein 5 (NS5)”, the binding entry in assay [1] is on record as “binds”; in assay [2] it was “no binding”; with Flag-tagged IKKε, “no binding”; in assay [3], “no binding”.
